The target in test [1] is T1, AHG1, split YFP fusion (Arabidopsis thaliana) (UniProt Q9FLI3).
T1 sequence: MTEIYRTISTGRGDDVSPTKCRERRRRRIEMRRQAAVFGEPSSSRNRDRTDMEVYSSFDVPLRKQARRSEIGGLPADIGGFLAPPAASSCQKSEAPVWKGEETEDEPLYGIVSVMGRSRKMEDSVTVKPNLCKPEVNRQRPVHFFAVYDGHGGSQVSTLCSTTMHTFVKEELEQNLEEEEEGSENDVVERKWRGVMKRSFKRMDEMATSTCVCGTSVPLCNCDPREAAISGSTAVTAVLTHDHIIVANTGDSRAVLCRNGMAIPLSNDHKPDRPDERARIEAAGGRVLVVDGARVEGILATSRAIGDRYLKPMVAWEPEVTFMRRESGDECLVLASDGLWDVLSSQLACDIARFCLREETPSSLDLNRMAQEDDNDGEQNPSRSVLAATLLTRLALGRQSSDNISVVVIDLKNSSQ
Kind of test: split reporter.

The target in test [2] is T2, SnRK2.3, split YFP fusion (Arabidopsis thaliana) (UniProt Q39193).
T2 sequence: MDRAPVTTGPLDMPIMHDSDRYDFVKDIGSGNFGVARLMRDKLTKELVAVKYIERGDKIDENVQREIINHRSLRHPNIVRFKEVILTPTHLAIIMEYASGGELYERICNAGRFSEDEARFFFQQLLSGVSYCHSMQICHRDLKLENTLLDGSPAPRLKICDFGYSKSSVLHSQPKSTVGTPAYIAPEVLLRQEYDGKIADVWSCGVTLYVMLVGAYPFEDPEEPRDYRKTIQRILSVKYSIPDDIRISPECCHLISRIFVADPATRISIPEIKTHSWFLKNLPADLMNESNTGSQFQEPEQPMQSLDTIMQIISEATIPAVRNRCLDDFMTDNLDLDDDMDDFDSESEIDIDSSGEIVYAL
Kind of test: split reporter.

Substrate in the next test: C domain of AFP1, yeast two-hybrid fusion (Arabidopsis thaliana)
As to the kind of experiment: two-hybrid.

No constants are given. Whether binding was seen depends on the method and setting. Binding can be weak; no strength is given. Tags and fused reporters may be left off the sequences shown. For some of these results: In cells and extracts the contact can be indirect.

Turning to “C domain of AFP1, split YFP fusion (Arabidopsis thaliana) (domain or fragment)”, the values for the binding entry in test [1] and in test [2] were “binds” and “no binding”, respectively.
On the same counts, the results for “C domain of AFP2, split YFP fusion (Arabidopsis thaliana) (domain or fragment)” are “binds” and “binds”.
As for “B domain of AFP2, split YFP fusion (Arabidopsis thaliana) (domain or fragment)”, the binding entry in test [1] and in test [2] was “binds” each time.
As to “A domain of AFP1, split YFP fusion (Arabidopsis thaliana) (domain or fragment)”, the binding entry in test [1] and in test [2] was “binds” throughout.
With “B domain of AFP1, split YFP fusion (Arabidopsis thaliana) (domain or fragment)”, the binding entry in test [1] and in test [2] was “binds” throughout.
As for “A domain of AFP2, split YFP fusion (Arabidopsis thaliana) (domain or fragment)”, the binding entry in test [1] was “binds”; in test [2], “no binding”.

B1: ABA-… …ON 1 (AHG1), AD fusion (enzyme, UniProt Q9FLI3 1-416)
chain: MTEIYRTISTGRGDDVSPTKCRERRRRRIEMRRQAAVFGEPSSSRNRDRTDMEVYSSFDVPLRKQARRSEIGGLPADIGGFLAPPAASSCQKSEAPVWKGEETEDEPLYGIVSVMGRSRKMEDSVTVKPNLCKPEVNRQRPVHFFAVYDGHGGSQVSTLCSTTMHTFVKEELEQNLEEEEEGSENDVVERKWRGVMKRSFKRMDEMATSTCVCGTSVPLCNCDPREAAISGSTAVTAVLTHDHIIVANTGDSRAVLCRNGMAIPLSNDHKPDRPDERARIEAAGGRVLVVDGARVEGILATSRAIGDRYLKPMVAWEPEVTFMRRESGDECLVLASDGLWDVLSSQLACDIARFCLREETPSSLDLNRMAQEDDNDGEQNPSRSVLAATLLTRLALGRQSSDNISVVVIDLKNSSQ
Regarding B1, in the test “two-hybrid”, the binding entry was “binds”.

Source of the values: article doi:10.1101/2024.10.11.617944.
